The record followed here is paper doi:10.1101/2024.01.30.578015.

By UniProt entry, the sequences of proteins in these tests, tags left out. Where a name states a change or a piece, a line headed by the entry shows the natural chain unless it says otherwise.
UniProt Q8IXJ9: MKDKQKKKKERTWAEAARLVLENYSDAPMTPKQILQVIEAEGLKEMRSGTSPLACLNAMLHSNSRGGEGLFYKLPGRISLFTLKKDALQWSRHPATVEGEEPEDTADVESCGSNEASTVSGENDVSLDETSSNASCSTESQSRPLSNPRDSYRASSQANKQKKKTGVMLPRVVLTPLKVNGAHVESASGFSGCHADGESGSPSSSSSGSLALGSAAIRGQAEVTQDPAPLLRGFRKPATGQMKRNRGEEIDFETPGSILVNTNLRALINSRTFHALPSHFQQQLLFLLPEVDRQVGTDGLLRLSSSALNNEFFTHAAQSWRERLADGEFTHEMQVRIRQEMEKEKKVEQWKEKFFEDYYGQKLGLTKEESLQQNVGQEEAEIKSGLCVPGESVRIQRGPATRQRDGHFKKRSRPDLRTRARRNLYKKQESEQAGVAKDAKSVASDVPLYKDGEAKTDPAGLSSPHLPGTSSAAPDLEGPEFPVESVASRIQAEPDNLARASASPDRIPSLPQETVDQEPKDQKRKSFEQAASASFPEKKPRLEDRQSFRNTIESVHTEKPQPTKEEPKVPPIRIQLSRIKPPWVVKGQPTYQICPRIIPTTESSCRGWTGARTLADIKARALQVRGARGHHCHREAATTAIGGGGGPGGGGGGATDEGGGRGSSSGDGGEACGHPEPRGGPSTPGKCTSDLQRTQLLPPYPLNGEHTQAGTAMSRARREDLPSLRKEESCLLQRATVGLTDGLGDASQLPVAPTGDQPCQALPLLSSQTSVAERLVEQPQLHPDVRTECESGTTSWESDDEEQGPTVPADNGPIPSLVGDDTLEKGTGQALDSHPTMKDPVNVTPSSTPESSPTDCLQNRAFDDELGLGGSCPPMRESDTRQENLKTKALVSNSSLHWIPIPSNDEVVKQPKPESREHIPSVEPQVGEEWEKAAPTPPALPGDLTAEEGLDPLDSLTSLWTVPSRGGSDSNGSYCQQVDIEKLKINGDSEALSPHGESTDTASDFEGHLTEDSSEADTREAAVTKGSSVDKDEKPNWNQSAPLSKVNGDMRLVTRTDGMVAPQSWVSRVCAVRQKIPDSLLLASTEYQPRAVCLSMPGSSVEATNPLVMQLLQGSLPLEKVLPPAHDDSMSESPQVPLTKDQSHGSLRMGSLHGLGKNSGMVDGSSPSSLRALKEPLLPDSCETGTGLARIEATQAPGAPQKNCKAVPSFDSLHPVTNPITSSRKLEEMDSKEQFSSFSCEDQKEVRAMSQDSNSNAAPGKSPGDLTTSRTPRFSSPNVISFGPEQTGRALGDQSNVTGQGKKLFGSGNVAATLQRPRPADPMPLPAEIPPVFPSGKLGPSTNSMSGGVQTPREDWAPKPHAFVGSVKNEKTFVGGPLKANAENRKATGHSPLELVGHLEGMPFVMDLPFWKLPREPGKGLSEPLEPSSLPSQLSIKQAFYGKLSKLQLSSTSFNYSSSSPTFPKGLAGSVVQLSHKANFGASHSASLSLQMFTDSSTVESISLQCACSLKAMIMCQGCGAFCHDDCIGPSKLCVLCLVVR
UniProt Q92560: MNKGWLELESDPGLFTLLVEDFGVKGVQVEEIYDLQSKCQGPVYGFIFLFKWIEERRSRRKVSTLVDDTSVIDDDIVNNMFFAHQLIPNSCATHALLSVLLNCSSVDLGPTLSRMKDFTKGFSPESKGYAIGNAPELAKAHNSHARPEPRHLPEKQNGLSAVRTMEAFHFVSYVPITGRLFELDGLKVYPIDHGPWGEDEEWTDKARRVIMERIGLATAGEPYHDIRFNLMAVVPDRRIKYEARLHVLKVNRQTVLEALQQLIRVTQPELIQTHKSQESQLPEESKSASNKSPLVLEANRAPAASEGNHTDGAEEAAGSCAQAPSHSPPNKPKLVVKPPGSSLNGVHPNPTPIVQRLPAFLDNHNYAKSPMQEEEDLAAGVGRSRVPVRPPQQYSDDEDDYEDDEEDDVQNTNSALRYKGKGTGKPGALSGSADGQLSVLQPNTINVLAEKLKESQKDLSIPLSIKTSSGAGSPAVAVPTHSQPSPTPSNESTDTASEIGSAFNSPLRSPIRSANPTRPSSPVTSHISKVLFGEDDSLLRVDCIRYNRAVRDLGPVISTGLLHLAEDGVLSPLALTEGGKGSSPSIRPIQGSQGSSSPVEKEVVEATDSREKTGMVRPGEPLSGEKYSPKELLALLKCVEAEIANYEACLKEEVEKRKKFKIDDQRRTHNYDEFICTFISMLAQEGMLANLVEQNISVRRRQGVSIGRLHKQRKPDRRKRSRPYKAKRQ
UniProt Q01167: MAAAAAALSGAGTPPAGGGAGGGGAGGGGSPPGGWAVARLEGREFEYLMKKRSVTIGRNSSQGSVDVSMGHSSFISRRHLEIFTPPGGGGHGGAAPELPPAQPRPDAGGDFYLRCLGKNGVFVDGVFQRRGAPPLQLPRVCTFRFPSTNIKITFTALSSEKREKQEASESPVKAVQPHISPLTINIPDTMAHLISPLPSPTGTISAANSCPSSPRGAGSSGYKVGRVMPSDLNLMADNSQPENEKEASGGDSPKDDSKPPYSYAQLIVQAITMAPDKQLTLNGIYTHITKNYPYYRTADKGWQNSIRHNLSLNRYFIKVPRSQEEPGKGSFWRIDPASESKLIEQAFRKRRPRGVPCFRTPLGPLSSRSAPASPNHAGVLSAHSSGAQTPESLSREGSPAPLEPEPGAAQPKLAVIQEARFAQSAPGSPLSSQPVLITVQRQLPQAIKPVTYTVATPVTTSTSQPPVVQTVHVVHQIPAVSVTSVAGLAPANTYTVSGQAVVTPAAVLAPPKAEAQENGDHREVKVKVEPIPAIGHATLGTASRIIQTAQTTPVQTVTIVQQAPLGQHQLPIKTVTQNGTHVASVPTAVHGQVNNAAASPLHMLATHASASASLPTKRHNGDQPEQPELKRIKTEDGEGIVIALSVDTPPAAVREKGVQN
UniProt Q13185: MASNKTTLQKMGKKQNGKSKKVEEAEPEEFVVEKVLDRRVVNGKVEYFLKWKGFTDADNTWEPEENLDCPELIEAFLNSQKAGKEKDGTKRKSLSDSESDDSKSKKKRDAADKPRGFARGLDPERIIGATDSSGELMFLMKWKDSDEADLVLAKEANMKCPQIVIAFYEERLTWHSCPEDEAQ

What all share (assay): co-IP
In assay [1] the target is full-length ASXL1-3xFLAG (human) (UniProt Q8IXJ9).
The target in assay [2] is V5-tagged EHMT2 (UniProt Q96KQ7).
In assay [3] the target is mutant ASXL1Y591X-3xFLAG stably expressed in K562 cells (human) (UniProt Q8IXJ9).
For assay [4], the target named is EHMT2, endogenous in K562 (human (endogenous in K562)) (UniProt Q96KQ7).
Assay [5] deals with V5-tagged EHMT2 (UniProt Q96KQ7). This is another data set of the same source.
Assay [6] addresses T1, V5-tagged EHMT2, Q96KQ7.
T1 chain: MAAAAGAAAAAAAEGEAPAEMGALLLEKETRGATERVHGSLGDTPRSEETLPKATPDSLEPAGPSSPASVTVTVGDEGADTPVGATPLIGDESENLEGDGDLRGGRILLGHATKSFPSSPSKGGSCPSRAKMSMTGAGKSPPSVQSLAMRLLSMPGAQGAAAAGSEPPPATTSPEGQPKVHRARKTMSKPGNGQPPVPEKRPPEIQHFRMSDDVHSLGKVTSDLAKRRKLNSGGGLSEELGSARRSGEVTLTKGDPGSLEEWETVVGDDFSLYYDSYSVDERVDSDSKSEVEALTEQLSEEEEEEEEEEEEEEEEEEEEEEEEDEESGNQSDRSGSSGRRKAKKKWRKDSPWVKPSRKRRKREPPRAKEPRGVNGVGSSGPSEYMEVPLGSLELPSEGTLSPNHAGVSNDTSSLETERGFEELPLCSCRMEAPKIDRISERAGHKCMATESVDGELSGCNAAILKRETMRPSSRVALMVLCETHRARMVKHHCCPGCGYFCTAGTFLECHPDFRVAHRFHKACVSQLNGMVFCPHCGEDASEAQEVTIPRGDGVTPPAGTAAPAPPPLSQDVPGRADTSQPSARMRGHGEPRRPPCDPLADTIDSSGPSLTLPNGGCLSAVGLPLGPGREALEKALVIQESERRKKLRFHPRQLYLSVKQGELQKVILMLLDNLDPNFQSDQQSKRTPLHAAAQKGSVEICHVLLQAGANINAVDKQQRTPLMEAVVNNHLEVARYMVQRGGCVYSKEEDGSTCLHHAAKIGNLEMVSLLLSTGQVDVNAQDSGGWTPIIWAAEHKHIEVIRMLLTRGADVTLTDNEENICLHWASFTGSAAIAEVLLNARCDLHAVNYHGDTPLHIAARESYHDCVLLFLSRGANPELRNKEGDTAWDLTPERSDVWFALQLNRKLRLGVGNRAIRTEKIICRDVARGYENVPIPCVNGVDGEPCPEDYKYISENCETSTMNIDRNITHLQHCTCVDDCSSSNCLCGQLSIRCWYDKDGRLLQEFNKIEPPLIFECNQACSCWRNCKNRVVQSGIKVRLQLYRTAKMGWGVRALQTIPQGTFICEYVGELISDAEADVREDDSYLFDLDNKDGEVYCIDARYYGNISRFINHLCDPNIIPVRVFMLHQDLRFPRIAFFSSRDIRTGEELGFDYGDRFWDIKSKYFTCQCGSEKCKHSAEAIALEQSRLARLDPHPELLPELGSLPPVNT
The following applies: remark: other sources report otherwise.

Like-named read-outs stand apart in the source and are kept apart here. No constants are given. Whether binding was seen depends on the method and setting. In cells and extracts the contact can be indirect. Some entries that bind do so weakly or less than the wild type. For some of these results: Tags and fused reporters may be left off the sequences shown.

As for “BAP1 (co-transfected) (from UniProt Q92560 1-729) (enzyme)”, in assay [1], the binding entry is “binds”. FOXK2 (from UniProt Q01167 1-660): the binding entry in assay [2] is given as “no binding”; in assay [1] it was “binds”. On to “HP1γ, endogenous in K562 (from UniProt Q13185 1-183)”, for which the binding entry in assay [3] was “binds”. For the molecule “endogenous BAP1 (from UniProt Q92560 1-729) (enzyme)”, in assay [2], the binding result is listed as “binds”.

On to “full-length ASXL1-3xFLAG (from UniProt Q8IXJ9 1-1541)”, for which the binding entry in assay [2] is recorded as “binds”. As for “full-length ASXL1-3xFLAG stably expressed in K562 cells (from UniProt Q8IXJ9 1-1541)”, the binding entry in assay [4] was “binds”. Still for that read-out and setting: with “mutant ASXL1Y591X-3xFLAG stably expressed in K562 cells (from UniProt Q8IXJ9 1-590)” the entry was “binds”.

B1: OGT (enzyme, UniProt O15294 1-1046)
chain: MASSVGNVADSTEPTKRMLSFQGLAELAHREYQAGDFEAAERHCMQLWRQEPDNTGVLLLLSSIHFQCRRLDRSAHFSTLAIKQNPLLAEAYSNLGNVYKERGQLQEAIEHYRHALRLKPDFIDGYINLAAALVAAGDMEGAVQAYVSALQYNPDLYCVRSDLGNLLKALGRLEEAKACYLKAIETQPNFAVAWSNLGCVFNAQGEIWLAIHHFEKAVTLDPNFLDAYINLGNVLKEARIFDRAVAAYLRALSLSPNHAVVHGNLACVYYEQGLIDLAIDTYRRAIELQPHFPDAYCNLANALKEKGSVAEAEDCYNTALRLCPTHADSLNNLANIKREQGNIEEAVRLYRKALEVFPEFAAAHSNLASVLQQQGKLQEALMHYKEAIRISPTFADAYSNMGNTLKEMQDVQGALQCYTRAIQINPAFADAHSNLASIHKDSGNIPEAIASYRTALKLKPDFPDAYCNLAHCLQIVCDWTDYDERMKKLVSIVADQLEKNRLPSVHPHHSMLYPLSHGFRKAIAERHGNLCLDKINVLHKPPYEHPKDLKLSDGRLRVGYVSSDFGNHPTSHLMQSIPGMHNPDKFEVFCYALSPDDGTNFRVKVMAEANHFIDLSQIPCNGKAADRIHQDGIHILVNMNGYTKGARNELFALRPAPIQAMWLGYPGTSGALFMDYIITDQETSPAEVAEQYSEKLAYMPHTFFIGDHANMFPHLKKKAVIDFKSNGHIYDNRIVLNGIDLKAFLDSLPDVKIVKMKCPDGGDNADSSNTALNMPVIPMNTIAEAVIEMINRGQIQITINGFSISNGLATTQINNKAATGEEVPRTIIVTTRSQYGLPEDAIVYCNFNQLYKIDPSTLQMWANILKRVPNSVLWLLRFPAVGEPNIQQYAQNMGLPQNRIIFSPVAPKEEHVRRGQLADVCLDTPLCNGHTTGMDVLWAGTPMVTMPGETLASRVAASQLTCLGCLELIAKNRQEYEDIAVKLGTDLEYLKKVRGKVWKQRISSPLFNTKQYTMELERLYLQMWEHYAAGNKPDHMIKPVEVTESA
For B1, the binding result in assay [5] is listed as “no binding”.

B2: EHMT1 (GLP), Q9H9B1 1-1298 (enzyme)
chain: MAAADAEAVPARGEPQQDCCVKTELLGEETPMAADEGSAEKQAGEAHMAADGETNGSCENSDASSHANAAKHTQDSARVNPQDGTNTLTRIAENGVSERDSEAAKQNHVTADDFVQTSVIGSNGYILNKPALQAQPLRTTSTLASSLPGHAAKTLPGGAGKGRTPSAFPQTPAAPPATLGEGSADTEDRKLPAPGADVKVHRARKTMPKSVVGLHAASKDPREVREARDHKEPKEEINKNISDFGRQQLLPPFPSLHQSLPQNQCYMATTKSQTACLPFVLAAAVSRKKKRRMGTYSLVPKKKTKVLKQRTVIEMFKSITHSTVGSKGEKDLGASSLHVNGESLEMDSDEDDSEELEEDDGHGAEQAAAFPTEDSRTSKESMSEADRAQKMDGESEEEQESVDTGEEEEGGDESDLSSESSIKKKFLKRKGKTDSPWIKPARKRRRRSRKKPSGALGSESYKSSAGSAEQTAPGDSTGYMEVSLDSLDLRVKGILSSQAEGLANGPDVLETDGLQEVPLCSCRMETPKSREITTLANNQCMATESVDHELGRCTNSVVKYELMRPSNKAPLLVLCEDHRGRMVKHQCCPGCGYFCTAGNFMECQPESSISHRFHKDCASRVNNASYCPHCGEESSKAKEVTIAKADTTSTVTPVPGQEKGSALEGRADTTTGSAAGPPLSEDDKLQGAASHVPEGFDPTGPAGLGRPTPGLSQGPGKETLESALIALDSEKPKKLRFHPKQLYFSARQGELQKVLLMLVDGIDPNFKMEHQNKRSPLHAAAEAGHVDICHMLVQAGANIDTCSEDQRTPLMEAAENNHLEAVKYLIKAGALVDPKDAEGSTCLHLAAKKGHYEVVQYLLSNGQMDVNCQDDGGWTPMIWATEYKHVDLVKLLLSKGSDINIRDNEENICLHWAAFSGCVDIAEILLAAKCDLHAVNIHGDSPLHIAARENRYDCVVLFLSRDSDVTLKNKEGETPLQCASLNSQVWSALQMSKALQDSAPDRPSPVERIVSRDIARGYERIPIPCVNAVDSEPCPSNYKYVSQNCVTSPMNIDRNITHLQYCVCIDDCSSSNCMCGQLSMRCWYDKDGRLLPEFNMAEPPLIFECNHACSCWRNCRNRVVQNGLRARLQLYRTRDMGWGVRSLQDIPPGTFVCEYVGELISDSEADVREEDSYLFDLDNKDGEVYCIDARFYGNVSRFINHHCEPNLVPVRVFMAHQDLRFPRIAFFSTRLIEAGEQLGFDYGERFWDIKGKLFSCRCGSPKCRHSSAALAQRQASAAQEAQEDGLPDTSSAAAADPL
In the case of B2, the binding entry in assay [6] was “binds”.
